From article doi:10.1101/2022.07.11.499655
These are yes or no findings as the source states them, for the method shown. In cells and extracts the contact can be indirect. Binding can be weak; no strength is given. Each block holds one binder with its values, some of them ahead of it.

Biological target: NCOR2-013 (Flag-tagged), truncated protein of NCOR2/SMRT (human)
Assay: co-IP

- binding: binds
B1: JunB (protein, UniProt P17275 1-347)
chain: MCTKMEQPFYHDDSYTATGYGRAPGGLSLHDYKLLKPSLAVNLADPYRSLKAPGARGPGPEGGGGGSYFSGQGSDTGASLKLASSELERLIVPNSNGVITTTPTPPGQYFYPRGGGSGGGAGGAGGGVTEEQEGFADGFVKALDDLHKMNHVTPPNVSLGATGGPPAGPGGVYAGPEPPPVYTNLSSYSPASASSGGAGAAVGTGSSYPTTTISYLPHAPPFAGGHPAQLGLGRGASTFKEEPQTVPEARSRDATPPVSPINMEDQERIKVERKRLRNRLAATKCRKRKLERIARLEDKVKTLKAENAGLSSTAGLLREQVAQLKQKVMTHVSNGCQLLLGVKGHAF

- binding: no binding
B2: JunD (protein, UniProt P17535 1-347)
chain: METPFYGDEALSGLGGGASGSGGSFASPGRLFPGAPPTAAAGSMMKKDALTLSLSEQVAAALKPAAAPPPTPLRADGAPSAAPPDGLLASPDLGLLKLASPELERLIIQSNGLVTTTPTSSQFLYPKVAASEEQEFAEGFVKALEDLHKQNQLGAGAAAAAAAAAAGGPSGTATGSAPPGELAPAAAAPEAPVYANLSSYAGGAGGAGGAATVAFAAEPVPFPPPPPPGALGPPRLAALKDEPQTVPDVPSFGESPPLSPIDMDTQERIKAERKRLRNRIAASKCRKRKLERISRLEEKVKTLKSQNTELASTASLLREQVAQLKQKVLSHVNSGCQLLPQHQVPAY
